{"source": "the supplement of paper PMC10077471", "note": "Over roughly 1,900 compounds, “excess over highest single agent (ExcessHSA) synergy score, 6x6 matrix” has its median near -83; the lowest 2% begin near -370. This is one part of the list."}
{"tested_on": "NCI-H446", "test": "excess over highest single agent (ExcessHSA) synergy score, 6x6 matrix; higher = less synergy (more negative = stronger synergy)", "details": "72 h; CellTiter-Glo viability"}
{"smiles": "COc1cc(F)c(F)c(Nc2ccc(I)cc2F)c1NS(=O)(=O)C1(C[C@H](O)CO)CC1", "note": "+ Cc1sc2c(c1C)C(c1ccc(Cl)cc1)=N[C@@H](CC(=O)OC(C)(C)C)c1nnc(C)n1-2 [NCGC00250412-19]", "excess over highest single agent": -178}
{"smiles": "CN[C@@H]1[C@@H](O)[C@@H](O[C@@H]2[C@@H](O)[C@H](O[C@H]3O[C@H](CN)[C@@H](O)[C@H](O)[C@H]3O)[C@@H](N)C[C@H]2NC(=O)[C@@H](O)CN)OC[C@]1(C)O", "note": "+ Cc1sc2c(c1C)C(c1ccc(Cl)cc1)=N[C@@H](CC(=O)OC(C)(C)C)c1nnc(C)n1-2 [NCGC00250412-19]", "excess over highest single agent": -77.6}
{"smiles": "CCCCN(CCCC)CCC(O)c1cc2c(Cl)cc(Cl)cc2c2cc(C(F)(F)F)ccc12", "note": "(stereo not drawn) + Cc1sc2c(c1C)C(c1ccc(Cl)cc1)=N[C@@H](CC(=O)OC(C)(C)C)c1nnc(C)n1-2 [NCGC00250412-19]", "excess over highest single agent": -213}
{"smiles": "C#C[C@]1(O)CC[C@H]2[C@@H]3CCc4cc(O)ccc4[C@H]3CC[C@@]21C", "note": "+ Cc1sc2c(c1C)C(c1ccc(Cl)cc1)=N[C@@H](CC(=O)OC(C)(C)C)c1nnc(C)n1-2 [NCGC00250412-19]", "excess over highest single agent": -211}
{"smiles": "COc1cc2nc(-c3ccc(N4CCN(C)CC4)cc3)nc(NCCN3CCOCC3)c2cc1OC", "note": "+ Cc1sc2c(c1C)C(c1ccc(Cl)cc1)=N[C@@H](CC(=O)OC(C)(C)C)c1nnc(C)n1-2 [NCGC00250412-19]", "excess over highest single agent": -31.8}
{"smiles": "Cn1c(=O)n(-c2ccc(C(C)(C)C#N)cc2)c2c3cc(-c4cnc5ccccc5c4)ccc3ncc21", "note": "+ Cc1sc2c(c1C)C(c1ccc(Cl)cc1)=N[C@@H](CC(=O)OC(C)(C)C)c1nnc(C)n1-2 [NCGC00250412-19]", "excess over highest single agent": -327}
{"smiles": "O=C(OCC#CCSc1nnc(-c2cccc3ccccc23)o1)c1cc2ccccc2s1", "note": "+ Cc1sc2c(c1C)C(c1ccc(Cl)cc1)=N[C@@H](CC(=O)OC(C)(C)C)c1nnc(C)n1-2 [NCGC00250412-19]", "excess over highest single agent": -169}
{"smiles": "CCOc1cc(CC(=O)N[C@@H](CC(C)C)c2ccccc2N2CCCCC2)ccc1C(=O)O", "note": "+ Cc1sc2c(c1C)C(c1ccc(Cl)cc1)=N[C@@H](CC(=O)OC(C)(C)C)c1nnc(C)n1-2 [NCGC00250412-19]", "excess over highest single agent": -80.5}
{"smiles": "O=C(O)C(Cc1c[nH]c2ccccc12)N1C(=O)c2ccccc2C1=O", "note": "(stereo not drawn) + Cc1sc2c(c1C)C(c1ccc(Cl)cc1)=N[C@@H](CC(=O)OC(C)(C)C)c1nnc(C)n1-2 [NCGC00250412-19]", "excess over highest single agent": -158}
{"smiles": "COCC1OC(=O)c2coc3c2C1(C)C1=C(C3=O)C2CCC(O)C2(C)CC1OC(C)=O", "note": "(stereo not drawn) + Cc1sc2c(c1C)C(c1ccc(Cl)cc1)=N[C@@H](CC(=O)OC(C)(C)C)c1nnc(C)n1-2 [NCGC00250412-19]", "excess over highest single agent": -423}
{"smiles": "O=NN(CCCl)C(=O)NCCCl", "note": "+ Cc1sc2c(c1C)C(c1ccc(Cl)cc1)=N[C@@H](CC(=O)OC(C)(C)C)c1nnc(C)n1-2 [NCGC00250412-19]", "excess over highest single agent": -51.8}
{"smiles": "CCOC(=O)c1ncn2c1CN(C)C(=O)c1cc(F)ccc1-2", "note": "+ Cc1sc2c(c1C)C(c1ccc(Cl)cc1)=N[C@@H](CC(=O)OC(C)(C)C)c1nnc(C)n1-2 [NCGC00250412-19]", "excess over highest single agent": 53.7}
{"smiles": "CNC(=O)c1ccccc1Nc1nc(Nc2ccc(N3CCOCC3)cc2OC)ncc1Cl", "note": "+ Cc1sc2c(c1C)C(c1ccc(Cl)cc1)=N[C@@H](CC(=O)OC(C)(C)C)c1nnc(C)n1-2 [NCGC00250412-19]", "excess over highest single agent": -63.2}
{"smiles": "CC1=C(C(=O)Nc2cc3cn[nH]c3cc2F)C(c2ccc(C(F)(F)F)cc2)CC(=O)N1", "note": "(stereo not drawn) + Cc1sc2c(c1C)C(c1ccc(Cl)cc1)=N[C@@H](CC(=O)OC(C)(C)C)c1nnc(C)n1-2 [NCGC00250412-19]", "excess over highest single agent": -53.3}
{"smiles": "O=C(Nc1ccncc1)C(=O)c1cn(Cc2ccc(Cl)cc2)c2ccccc12", "note": "+ Cc1sc2c(c1C)C(c1ccc(Cl)cc1)=N[C@@H](CC(=O)OC(C)(C)C)c1nnc(C)n1-2 [NCGC00250412-19]", "excess over highest single agent": -184}
{"smiles": "COC(=O)N[C@H](C(=O)N1CCC[C@H]1c1ncc(-c2ccc(-c3ccc(-c4cnc([C@@H]5CCCN5C(=O)[C@@H](NC(=O)OC)C(C)C)[nH]4)cc3)cc2)[nH]1)C(C)C", "note": "+ Cc1sc2c(c1C)C(c1ccc(Cl)cc1)=N[C@@H](CC(=O)OC(C)(C)C)c1nnc(C)n1-2 [NCGC00250412-19]", "excess over highest single agent": -60.2}
{"smiles": "Nc1nc(N)c2nc(CNc3ccc(C(=O)N[C@@H](CCC(=O)O)C(=O)O)cc3)cnc2n1", "note": "+ Cc1sc2c(c1C)C(c1ccc(Cl)cc1)=N[C@@H](CC(=O)OC(C)(C)C)c1nnc(C)n1-2 [NCGC00250412-19]", "excess over highest single agent": -252}
{"smiles": "CCCC1O[C@@H]2C[C@H]3[C@@H]4CCC5=CC(=O)C=C[C@]5(C)[C@H]4[C@@H](O)C[C@]3(C)[C@]2(C(=O)CO)O1", "note": "(stereo partly drawn) + Cc1sc2c(c1C)C(c1ccc(Cl)cc1)=N[C@@H](CC(=O)OC(C)(C)C)c1nnc(C)n1-2 [NCGC00250412-19]", "excess over highest single agent": 22.3}
{"smiles": "COc1cc(C(C)=O)ccc1OCCCN1CCC(c2noc3cc(F)ccc23)CC1", "note": "+ Cc1sc2c(c1C)C(c1ccc(Cl)cc1)=N[C@@H](CC(=O)OC(C)(C)C)c1nnc(C)n1-2 [NCGC00250412-19]", "excess over highest single agent": -238}
{"smiles": "COc1ccc(/C=C\\c2cc(OC)c(OC)c(OC)c2)cc1O", "note": "+ Cc1sc2c(c1C)C(c1ccc(Cl)cc1)=N[C@@H](CC(=O)OC(C)(C)C)c1nnc(C)n1-2 [NCGC00250412-19]", "excess over highest single agent": -98.5}
{"smiles": "Nc1[nH]nc2nnc(-c3c(-c4ccccc4)nn4ccccc34)cc12", "note": "+ Cc1sc2c(c1C)C(c1ccc(Cl)cc1)=N[C@@H](CC(=O)OC(C)(C)C)c1nnc(C)n1-2 [NCGC00250412-19]", "excess over highest single agent": 98.9}
{"smiles": "CC(C)OC(=O)CCC/C=C\\C[C@@H]1[C@@H](/C=C/[C@@H](O)COc2cccc(C(F)(F)F)c2)[C@H](O)C[C@@H]1O", "note": "+ Cc1sc2c(c1C)C(c1ccc(Cl)cc1)=N[C@@H](CC(=O)OC(C)(C)C)c1nnc(C)n1-2 [NCGC00250412-19]", "excess over highest single agent": -230}
{"smiles": "CCOC(=O)N1CCN([N+]([O-])=NOc2ccc([N+](=O)[O-])cc2[N+](=O)[O-])CC1", "note": "+ Cc1sc2c(c1C)C(c1ccc(Cl)cc1)=N[C@@H](CC(=O)OC(C)(C)C)c1nnc(C)n1-2 [NCGC00250412-19]", "excess over highest single agent": -84.4}
{"smiles": "O=C(N[C@H]1CN2CCC1CC2)c1ccc(Cl)cc1", "note": "+ Cc1sc2c(c1C)C(c1ccc(Cl)cc1)=N[C@@H](CC(=O)OC(C)(C)C)c1nnc(C)n1-2 [NCGC00250412-19]", "excess over highest single agent": -70.5}
{"smiles": "Cc1cc(NS(=O)(=O)c2ccc(N)cc2)no1", "note": "+ Cc1sc2c(c1C)C(c1ccc(Cl)cc1)=N[C@@H](CC(=O)OC(C)(C)C)c1nnc(C)n1-2 [NCGC00250412-19]", "excess over highest single agent": 334}
{"smiles": "CC(C)N(CCCNC(=O)Nc1ccc(C(C)(C)C)cc1)C[C@H]1O[C@@H](n2cc(Br)c3c(N)ncnc32)[C@H](O)[C@@H]1O", "note": "+ Cc1sc2c(c1C)C(c1ccc(Cl)cc1)=N[C@@H](CC(=O)OC(C)(C)C)c1nnc(C)n1-2 [NCGC00250412-19]", "excess over highest single agent": -14.8}
{"smiles": "COc1cc(N2CCN(C)CC2)ccc1Nc1nc(N)c(C(=O)c2c(Cl)cccc2Cl)s1", "note": "+ Cc1sc2c(c1C)C(c1ccc(Cl)cc1)=N[C@@H](CC(=O)OC(C)(C)C)c1nnc(C)n1-2 [NCGC00250412-19]", "excess over highest single agent": -47.4}
{"smiles": "O=C(C[C@@H]1C/C=C/CCC(=O)O[C@H](c2ccccc2)CNC1=O)NCc1ccc(Cl)cc1", "note": "+ Cc1sc2c(c1C)C(c1ccc(Cl)cc1)=N[C@@H](CC(=O)OC(C)(C)C)c1nnc(C)n1-2 [NCGC00250412-19]", "excess over highest single agent": -98.1}
{"smiles": "Cc1cc(OCCCS(C)(=O)=O)cc(C)c1-c1cccc(COc2ccc3c(c2)OC[C@H]3CC(=O)O)c1", "note": "+ Cc1sc2c(c1C)C(c1ccc(Cl)cc1)=N[C@@H](CC(=O)OC(C)(C)C)c1nnc(C)n1-2 [NCGC00250412-19]", "excess over highest single agent": -123}
{"smiles": "CCN(CC)C(=S)SSC(=S)N(CC)CC", "note": "+ Cc1sc2c(c1C)C(c1ccc(Cl)cc1)=N[C@@H](CC(=O)OC(C)(C)C)c1nnc(C)n1-2 [NCGC00250412-19]", "excess over highest single agent": -184}
{"smiles": "Cn1cc(C[C@@H](N)C(=O)O)c2ccccc21", "note": "+ Cc1sc2c(c1C)C(c1ccc(Cl)cc1)=N[C@@H](CC(=O)OC(C)(C)C)c1nnc(C)n1-2 [NCGC00250412-19]", "excess over highest single agent": -157}
{"smiles": "COc1cc2/c(=N/c3ccc(Br)cc3F)nc[nH]c2cc1OCC1CCN(C)CC1", "note": "+ Cc1sc2c(c1C)C(c1ccc(Cl)cc1)=N[C@@H](CC(=O)OC(C)(C)C)c1nnc(C)n1-2 [NCGC00250412-19]", "excess over highest single agent": -157}
{"smiles": "Nc1c2c(nc3ccccc13)CCCC2", "note": "+ Cc1sc2c(c1C)C(c1ccc(Cl)cc1)=N[C@@H](CC(=O)OC(C)(C)C)c1nnc(C)n1-2 [NCGC00250412-19]", "excess over highest single agent": -80.3}
{"smiles": "CCCCC(CC)COC(=O)C(C#N)=C(c1ccccc1)c1ccccc1", "note": "(stereo not drawn) + Cc1sc2c(c1C)C(c1ccc(Cl)cc1)=N[C@@H](CC(=O)OC(C)(C)C)c1nnc(C)n1-2 [NCGC00250412-19]", "excess over highest single agent": -86.5}
{"smiles": "COc1ccc2c(c1)c(C1=C(c3c[nH]c4ccccc34)C(=O)NC1=O)cn2CCCN(C)C", "note": "+ Cc1sc2c(c1C)C(c1ccc(Cl)cc1)=N[C@@H](CC(=O)OC(C)(C)C)c1nnc(C)n1-2 [NCGC00250412-19]", "excess over highest single agent": 146}
{"smiles": "O=c1cc(-c2ccccc2)oc2cc(O)cc(O)c12", "note": "+ Cc1sc2c(c1C)C(c1ccc(Cl)cc1)=N[C@@H](CC(=O)OC(C)(C)C)c1nnc(C)n1-2 [NCGC00250412-19]", "excess over highest single agent": -97.1}
{"smiles": "O=C(CCCCCCC(=O)Nc1ccccc1)NO", "note": "+ Cc1sc2c(c1C)C(c1ccc(Cl)cc1)=N[C@@H](CC(=O)OC(C)(C)C)c1nnc(C)n1-2 [NCGC00250412-19]", "excess over highest single agent": -29.9}
{"smiles": "NC[C@H]1O[C@H](O[C@H]2[C@H](O)[C@@H](O[C@H]3O[C@H](CO)[C@@H](O)[C@H](N)[C@H]3O)[C@H](N)C[C@@H]2N)[C@H](O)[C@@H](O)[C@@H]1O", "note": "+ Cc1sc2c(c1C)C(c1ccc(Cl)cc1)=N[C@@H](CC(=O)OC(C)(C)C)c1nnc(C)n1-2 [NCGC00250412-19]", "excess over highest single agent": -44.7}
